Results are given in words; binding and its absence hold for the method and conditions named. For part of these data: Binding calls can cover weak binding; strength is not graded here. Where a sequence is shown, tags or fusion partners need not be part of it.
Assays:
Experiment in all cases: radiolabeled GST-peptide probe on a western blot of WW domains (far-western)
[1] = target: WW domain of YAP
[2] = target: WW domain of FBP30
[3] = target: GST alone

- binding [1]: no binding
- binding [2]: binds
- binding [3]: no binding
Binder: GMGIPPPPPLPGVGIPPPPPLP (peptide, not shown: a dimerising Fc or GST, radiolabeled (label and position not stated))

Reference: US20030170683A1
